Data: US20050287136A1
These are yes or no findings as the source states them, for the method shown. Some results given as binding are weak or reduced against the parent protein; the word gives no strength.

Sequences of proteins named here, by UniProt entry; tags and fusion partners are left off. Residues count along the entry.
UniProt P42081, residues 24-247: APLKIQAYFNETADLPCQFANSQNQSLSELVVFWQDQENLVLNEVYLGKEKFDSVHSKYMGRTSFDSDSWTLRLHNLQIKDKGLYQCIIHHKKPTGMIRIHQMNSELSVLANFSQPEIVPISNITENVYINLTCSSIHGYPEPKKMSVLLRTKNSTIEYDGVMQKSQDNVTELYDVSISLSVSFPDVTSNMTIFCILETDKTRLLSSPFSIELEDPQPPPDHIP

Biological target: mutated human CTLA4 having the L105M and G106S changes (human)
Experiment: binding to mutant CTLA4 (L105M, G106S)

B7.2-IgG1 fusion protein (from UniProt P42081 24-247) (Fc fusion)
binding: binds
